Results deposited as PubChem BioAssay AID1259405 (NCATS, 2018)
Shown is one part, drawn at random, of about 50,000 deposited reagents. Over the whole deposit, about 4,000 (8%) were called active. 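Mouse siRNA library applied to hamster cells; one well for each siRNA.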 Unmarked entries are inactive. Reagents against one gene are numbered here.

Aim: 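Silenced genes that increase secreted GFP made by CHO cells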 (primary screen)
Cell system: Chinese hamster CHO-K1 ovary cells with stable secreted eGFP expression
Reagent: single siRNA against mouse genes, 0.8 pmol siRNA per well (2 µl of 400 nM stock)
Time to read-out: 3 days
Read-out: 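Per-well intracellular GFP measured by laser scanning cytometry, plus viability from ATP luminescence, each relative to plate median of non-targeting control wells, in %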
Reading the numbers: GFP, % of control: higher = more GFP per well, higher productivity; viability (ATP), % of control: higher = more viable cells (more ATP)
Active means: 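a knock-down is called active if GFP reaches 120% or more of non-targeting control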

| gene | siRNA no. | GFP, % of control | viability (ATP), % of control |
| --- | --- | --- | --- |
| Ptma (GeneID 19231) | 1 | 87.6 | 66.7 |
| Ptma (GeneID 19231) | 2 | 44.9 | 48.8 |
| Ptma (GeneID 19231) | 3 | 73.5 | 66.8 |
| Dedd (GeneID 21945) | 1 | 77.7 | 119 |
| Dedd (GeneID 21945) | 2 | 68.9 | 85.7 |
| Dedd (GeneID 21945) | 3 | 149 (active) | 112 |
| Lrr1 (GeneID 69706) | 1 | 75.5 | 80 |
| Lrr1 (GeneID 69706) | 2 | 63.8 | 83.5 |
| Rplp0 (GeneID 11837) | 1 | 81.8 | 53.3 |
| Rplp0 (GeneID 11837) | 2 | 79.8 | 88 |
| Rplp0 (GeneID 11837) | 3 | 67 | 50.8 |
| Or7e176 (GeneID 258553) | 1 | 72.2 | 66.5 |
| Or7e176 (GeneID 258553) | 2 | 15.2 | 24.4 |
| Or7e176 (GeneID 258553) | 3 | 103 | 113 |
| F13b (GeneID 14060) | 1 | 65.6 | 53.2 |
| F13b (GeneID 14060) | 2 | 90.9 | 91.2 |
| F13b (GeneID 14060) | 3 | 125 (active) | 75.7 |
| Zfp507 (GeneID 668501) | 1 | 82.8 | 75.6 |
| Zfp507 (GeneID 668501) | 2 | 89.5 | 98.6 |
| Zfp507 (GeneID 668501) | 3 | 101 | 84.5 |
| Ccdc106 (GeneID 232821) | 1 | 40.6 | 36 |
| Ccdc106 (GeneID 232821) | 2 | 75 | 101 |
| Ccdc106 (GeneID 232821) | 3 | 88.1 | 131 |
| Atp6v1g1 (GeneID 66290) | 1 | 91.9 | 63.1 |
| Atp6v1g1 (GeneID 66290) | 2 | 93.4 | 79.5 |
| Atp6v1g1 (GeneID 66290) | 3 | 30.9 | 22.6 |
| Stc2 (GeneID 20856) | 1 | 89.9 | 64 |
| Stc2 (GeneID 20856) | 2 | 57.1 | 72.3 |
| Stc2 (GeneID 20856) | 3 | 84.8 | 67.1 |
| Epn2 (GeneID 13855) | 1 | 79.8 | 59.2 |
| Epn2 (GeneID 13855) | 2 | 65 | 38.5 |
| Epn2 (GeneID 13855) | 3 | 110 | 63.7 |
| A530021J07Rik (GeneID 330578) | 1 | 55.5 | 77.1 |
| A530021J07Rik (GeneID 330578) | 2 | 82.2 | 101 |
| A530021J07Rik (GeneID 330578) | 3 | 64.6 | 82.6 |
| Mrpl33 (GeneID 66845) | 1 | 67 | 64.3 |
| Mrpl33 (GeneID 66845) | 2 | 88.3 | 85 |
| Mrpl33 (GeneID 66845) | 3 | 70.9 | 60.8 |
| Pdzd8 (GeneID 107368) | 1 | 64.1 | 70.4 |
| Pdzd8 (GeneID 107368) | 2 | 54.3 | 68.3 |
| Pdzd8 (GeneID 107368) | 3 | 48 | 91.1 |
| Alas2 (GeneID 11656) | 1 | 69.5 | 73.6 |
| Alas2 (GeneID 11656) | 2 | 67.2 | 169 |
| Alas2 (GeneID 11656) | 3 | 112 | 108 |
| Ces1f (GeneID 234564) | 1 | 65.8 | 69.1 |
| Ces1f (GeneID 234564) | 2 | 70.2 | 81.7 |
| Ces1f (GeneID 234564) | 3 | 74.7 | 62 |
| Dlgap4 (GeneID 228836) | 1 | 109 | 81.2 |
| Dlgap4 (GeneID 228836) | 2 | 82.6 | 86.3 |
| Dlgap4 (GeneID 228836) | 3 | 65.9 | 32.3 |
| Ptpre (GeneID 19267) | 1 | 71.6 | 53.1 |
| Ptpre (GeneID 19267) | 2 | 88.6 | 79.7 |
| Ptpre (GeneID 19267) | 3 | 113 | 76.6 |
| Krt39 (GeneID 237934) | 1 | 63.2 | 96 |
| Krt39 (GeneID 237934) | 2 | 53.1 | 54.2 |
| Asb5 (GeneID 76294) | 1 | 50.7 | 55.1 |
| Asb5 (GeneID 76294) | 2 | 63.6 | 85.3 |
| Asb5 (GeneID 76294) | 3 | 52.6 | 54.2 |
| Neu3 (GeneID 50877) | 1 | 48.7 | 42.6 |
| Neu3 (GeneID 50877) | 2 | 79.7 | 70.3 |
| Neu3 (GeneID 50877) | 3 | 69.8 | 77.5 |
| Il11 (GeneID 16156) | 1 | 119 | 85 |
| Il11 (GeneID 16156) | 2 | 37.3 | 38.8 |
| Il11 (GeneID 16156) | 3 | 89 | 79.4 |
| Or14j5 (GeneID 258892) | 1 | 77.6 | 53.3 |
| Or14j5 (GeneID 258892) | 2 | 48.5 | 82.9 |
| Or14j5 (GeneID 258892) | 3 | 77.5 | 80.7 |
| Gpx7 (GeneID 67305) | 1 | 81.2 | 106 |
| Gpx7 (GeneID 67305) | 2 | 54.9 | 52.7 |
| Gpx7 (GeneID 67305) | 3 | 106 | 89.2 |
| Zfp938 (GeneID 237411) | 1 | 82.1 | 92.7 |
| Zfp938 (GeneID 237411) | 2 | 71.9 | 73.8 |
| Zfp938 (GeneID 237411) | 3 | 72.2 | 81.8 |
| Dcaf11 (GeneID 28199) | 1 | 45.6 | 42.5 |
| Dcaf11 (GeneID 28199) | 2 | 80.1 | 60.4 |
| Dcaf11 (GeneID 28199) | 3 | 50.8 | 82.5 |
| Zfp263 (GeneID 74120) | 1 | 76.6 | 106 |
| Zfp263 (GeneID 74120) | 2 | 41.5 | 77.4 |
| Zfp263 (GeneID 74120) | 3 | 50.3 | 81.9 |
| Pla2g2a (GeneID 18780) | 1 | 72.1 | 46.5 |
| Pla2g2a (GeneID 18780) | 2 | 77.2 | 68.2 |
| Pla2g2a (GeneID 18780) | 3 | 67.3 | 74.7 |
| Akr1c6 (GeneID 83702) | 1 | 84.8 | 77.3 |
| Akr1c6 (GeneID 83702) | 2 | 76.7 | 64.6 |
| Akr1c6 (GeneID 83702) | 3 | 94.6 | 83.4 |

13 of these entries, set out differently:
Or7e176 (GeneID 258553) #1 — GFP, % of control: 72.2; viability (ATP), % of control: 66.5
Or7e176 (GeneID 258553) #2 — GFP, % of control: 15.2; viability (ATP), % of control: 24.4
Or7e176 (GeneID 258553) #3 — GFP, % of control: 103; viability (ATP), % of control: 113
F13b (GeneID 14060) #1 — GFP, % of control: 65.6; viability (ATP), % of control: 53.2
F13b (GeneID 14060) #2 — GFP, % of control: 90.9; viability (ATP), % of control: 91.2
F13b (GeneID 14060) #3 — GFP, % of control: 125 (active); viability (ATP), % of control: 75.7
Zfp507 (GeneID 668501) #1 — GFP, % of control: 82.8; viability (ATP), % of control: 75.6
Zfp507 (GeneID 668501) #2 — GFP, % of control: 89.5; viability (ATP), % of control: 98.6
Zfp507 (GeneID 668501) #3 — GFP, % of control: 101; viability (ATP), % of control: 84.5
Ccdc106 (GeneID 232821) #1 — GFP, % of control: 40.6; viability (ATP), % of control: 36
Ccdc106 (GeneID 232821) #2 — GFP, % of control: 75; viability (ATP), % of control: 101
Ccdc106 (GeneID 232821) #3 — GFP, % of control: 88.1; viability (ATP), % of control: 131
Atp6v1g1 (GeneID 66290) #1 — GFP, % of control: 91.9; viability (ATP), % of control: 63.1
